# Measured values taken from publication doi:10.1101/2021.06.06.447241 (bioRxiv, 2021).
# Protein sequences, listed by entry. Tags and fused reporters are not part of them. Lines headed by an entry give the natural chain unless they say otherwise; changes in a name come on top.
# UniProt P15992: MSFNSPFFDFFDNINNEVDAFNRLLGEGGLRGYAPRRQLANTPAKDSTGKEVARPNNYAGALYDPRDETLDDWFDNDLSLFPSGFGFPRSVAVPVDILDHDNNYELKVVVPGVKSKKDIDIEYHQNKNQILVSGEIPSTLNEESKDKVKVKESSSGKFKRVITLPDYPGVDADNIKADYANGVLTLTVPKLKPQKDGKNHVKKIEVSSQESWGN
# UniProt P25491: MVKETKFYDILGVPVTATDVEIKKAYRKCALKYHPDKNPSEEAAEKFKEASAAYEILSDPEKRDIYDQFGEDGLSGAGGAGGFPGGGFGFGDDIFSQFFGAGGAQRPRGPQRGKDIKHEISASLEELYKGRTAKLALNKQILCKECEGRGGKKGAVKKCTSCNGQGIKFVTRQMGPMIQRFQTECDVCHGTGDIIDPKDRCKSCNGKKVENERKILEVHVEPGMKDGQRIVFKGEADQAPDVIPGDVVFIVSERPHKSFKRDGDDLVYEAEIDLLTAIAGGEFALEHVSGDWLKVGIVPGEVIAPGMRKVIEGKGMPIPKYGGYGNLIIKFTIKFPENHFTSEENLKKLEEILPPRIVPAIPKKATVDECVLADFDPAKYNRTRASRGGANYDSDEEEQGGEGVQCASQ
# Results are given in words; binding and its absence hold for the method and conditions named. Some results given as binding are weak or reduced against the parent protein; the word gives no strength.
# Molecular target: Hsp26::luciferase complex (yeast (Saccharomyces cerevisiae) | firefly) (UniProt P15992)
# Assay: cross-linking
substance,measurement,value
Ydj1 (Hsp40) (from UniProt P25491 1-409),binding,binds
